## Results of single-concentration screens

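Assay of Toxoplasma gondii numbers, read through their beta-galactosidase reporter with a colour substrate. Compounds at 50 µM. Higher reads as fewer parasites (inferred from which compounds were picked for retests). Size under these conditions: about 18,000 compounds, about 170 of them at 50% or above in at least one test.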

The filed quantity is “Percent Effect” (%). The record does not define 0% and 100%; most values in the screen are far below 50% and negative numbers occur (in some assays of this library far below -100). Compounds were drawn at random from those tested, without regard to their results.

Result for COc1cc(OC)cc(C2(F)CCNCC2)c1 was 24.19%. Result for CCNC(=O)N1CCN(Cc2ccc(OC)nc2)CC1 was -1.385%. Cc1ccc(NC(=O)CCN2CCN(C)CC2)cc1C gave 4.212%. Result for O=C(NCC1(O)CCNC1)Nc1cccc(Cl)c1 (centres undefined) was -6.168%. COc1csc(-c2cc(N)n(C)n2)c1 gave -7.411%.

For COC(CN)CC(C)C (centres undefined) the result was -5.023%. For CN(C)c1cc(CNC(=O)c2ccc(Br)o2)ccn1 the result was 0.8065%. CCOC(=O)N1CC(N)C1 gave -2.079%. For CC1Cc2ccccc2N(C(=O)c2csnn2)C1 (centres undefined) the result was -11.47%. Result for COCCN(C)CC(=O)N1CC[C@](C)(O)[C@H](C)C1 was -15.97%.

With COCc1cc(CNC(=O)[C@@H](N)C(C)(C)C)n[nH]1 the screen gave -9.461%. CN(CC(=O)N(C)C)Cc1ccc(F)c2cccnc12 gave 11.31%. CCOCCS(=O)(=O)N1CCN(C)c2ccncc21 read -6.834%. O=C(NCc1cccs1)c1cnccn1 read -10.48%. Result for COc1cc(C(=O)N2CCCC[C@H](N(C)C)C2)ccn1 was -9.048%.

With COCC1(CNC(=O)NCCCF)CCC1 the screen gave 11.25%. Result for COc1ccc(NC(=O)N2CCOCC2C)cc1 (centres undefined) was 20.45%. For COCCN1CCC(CN(C)C2CCNCC2)C1 (centres undefined) the result was 3.375%. Cc1nsc(NC(=O)N2CCC(CN)CC2)n1 read -1.308%. Result for CC(C)n1cncc1CN1CCN2CCN(C)CC2C1 (centres undefined) was -2.016%.

For CCc1cn[nH]c1C1CCCNC1 (centres undefined) the result was 1.166%. Result for Cn1nccc1CC1CCNCC1 was -0.7642%. CC(O)CN(C)S(=O)(=O)Cc1ccc(F)cc1F (centres undefined) gave -5.459%. For CC(=O)N1CCC(n2ccc(C(F)(F)F)n2)CC1 the result was -4.726%. CN(C)c1cc(CNC(=O)NC2CCCC2)ccn1 read 19.43%.

For CO[C@H]1CNCC1NC(=O)CCc1ccsc1 (some centres undefined) the result was -3.969%. CNc1cc(C(=O)N2CC[C@](C)(O)[C@H](C)C2)ccn1 read 11.18%. For Cc1cc(C(F)F)nc2sc(C(N)=O)c(N)c12 the result was -41.67%. CC(=O)NCCNc1cc(C2CC(O)C2)ncn1 (centres undefined) gave 9.062%. With CCS(=O)(=O)NCCNCc1ccc(Cl)cc1F the screen gave -9.661%.

Source: ChEMBL document CHEMBL3988442, “University of Dundee, Small-Polar-MMV Screening Library” (2021).